{"source": "paper PMC7641331", "about": "“Ctf18-RFC and DNA Pol ϵ form a stable leading strand polymerase/clamp loader complex required for normal and perturbed DNA replication” (Nucleic Acids Research, 2019)", "assay_in_all_cases": "EMSA", "key": {"[1]": {"tested_on": "Ctf18-1-8 wild type (Ctf18 C-terminal fragment/Dcc1/Ctf8)", "details": "no Pol2CAT, Ctf18-1-8/DNA band shown at 2 uM, not at 250 nM; EMSA: 25 mM HEPES pH 7.5, 60 mM KCl, 10% glycerol, 1 mM TCEP, 50 nM P1P2*, 20 min on ice, 6% Tris-glycine gel at 4 C; recombinant protein; label: 5' Cy3 on P1"}, "[2]": {"tested_on": "Ctf18-1-8 Ctf18-RAA + Dcc1-3A V730R,R731A,K732A,K364A,R367A,R380A", "details": "250 nM protein, no Pol2CAT; EMSA: 25 mM HEPES pH 7.5, 60 mM KCl, 10% glycerol, 1 mM TCEP, 50 nM P1P2*, 20 min on ice, 6% Tris-glycine gel at 4 C; recombinant protein; label: 5' Cy3 on P1"}, "[3]": {"tested_on": "Ctf18-1-8 Ctf18-RAA V730R,R731A,K732A", "details": "250 nM protein, no Pol2CAT; EMSA: 25 mM HEPES pH 7.5, 60 mM KCl, 10% glycerol, 1 mM TCEP, 50 nM P1P2*, 20 min on ice, 6% Tris-glycine gel at 4 C; recombinant protein; label: 5' Cy3 on P1"}, "[4]": {"tested_on": "Ctf18-1-8 Dcc1-3A K364A,R367A,R380A", "details": "250 nM protein, no Pol2CAT; EMSA: 25 mM HEPES pH 7.5, 60 mM KCl, 10% glycerol, 1 mM TCEP, 50 nM P1P2*, 20 min on ice, 6% Tris-glycine gel at 4 C; recombinant protein; label: 5' Cy3 on P1"}}, "note": "The exact form of at least one protein or probe is not confirmed. For some of these results: Negatives hold for the conditions tested. For some of these results: At least one verdict was read from the data and is not stated in words by the source. For some of these results: Weaker means in comparison with the reference protein, sequence or condition of that experiment."}
{"sequence": "TAACCGCGTTC / CTCTTGAACGCGGTTA [P1P2* primer-template]", "values": [{"measurement": "binding result", "setting": "[1]", "value": "binds more weakly"}, {"measurement": "binding result", "setting": "[2]", "value": "no binding"}, {"measurement": "binding result", "setting": "[3]", "value": "no binding"}, {"measurement": "binding result", "setting": "[4]", "value": "no binding"}]}
